# Source: PubChem BioAssay AID328 (DTP/NCI, 2004)
# The list does not hold the whole screen: it is rich in T/C values a quarter to a half above the control, in often repeated tests (any T/C) and in doses without a T/C. Further doses and runs are listed elsewhere. T/C: endpoint of the treated group in % of that of the vehicle group. Some doses have a count of surviving animals in place of a T/C: the source holds a T/C of zero for them, seemingly a mark for toxic or unscored doses. Some survivor counts are full or nearly so, which does not show that the dose was tolerated: survival well below the control is almost never listed, so the zero probably covers shortened survival too. Survivors were counted at the toxicity check, usually on the fifth day, unless a day is given; later deaths do not show. Schedules are NCI's codes, taken here to give the interval after Q, in days (D) or hours (H), and the number of doses after X. Where survival is the endpoint, the PubChem record calls one and a half times the control and up active, and a quarter to a half above the control has no call in these data; cut-offs in other NCI protocols can differ. Starred links: 1 amine or outer side, 2 acyl side, 3 side chain; linkers in the order of their positions; H or OH if unused. Positions of bridges follow the written chain, without caps; N, C: chain ends. Non-standard residues stand in square brackets, D forms with d. Residues, ends and D or L forms follow the SMILES beside them. ξ: configuration not given here. *: point of attachment. ξOrn(4,5-diOH) = O=C(C(CC(O)C(O)N[*:3])N[*:1])[*:2]; ξhTyr(βξ-OH,γξ-OH) = NC(C(=O)O)C(O)C(O)c1ccc(O)cc1; ξPro(3ξ-OH,4ξ-Me) = CC1CNC(C(=O)O)C1O; X4 = CCCCC/C=C/C/C=C\CCCCCCCC(=O)*; Hyp = O=C(O)[CH]1C[CH](O)CN1
# Tested on: BDF1 mice, P388 leukemia ip, median survival T/C
# Assay: NCI In Vivo Anticancer Drug Screen. Data for tumor model P388 Leukemia (intraperitoneal) in B6D2F1 (BDF1) mice
# Conditions: T/C endpoint: median survival time, higher T/C = longer survival
# In short: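 Transplantable tumour in mice; compound vs vehicle dosing; survival scored; ratio of treated to control reported.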
# [1] = dose: 400.0 mg/kg/injection, schedule: Q04DX003 (ip), vehicle: saline
# [2] = dose: 200.0 mg/kg/injection, schedule: Q01DX009 (ip), vehicle: saline
# [3] = dose: 200.0 mg/kg/injection, schedule: Q01DX009 (ip), vehicle: saline with Tween-80
# [4] = dose: 400.0 mg/kg/injection, schedule: Q01DX009 (ip), vehicle: Klucel (hydroxypropylcellulose) (HPC)
# [5] = dose: 400.0 mg/kg/injection, schedule: Q01DX009 (ip), vehicle: saline
smiles,measurement,setting,value
OC(CN(CCCl)CCCl)C(O)C(O)C(O)CN(CCCl)CCCl (stereo not drawn),T/C,"dose: 0.09 mg/kg/injection, schedule: Q04DX003 (ip), vehicle: saline",141 % of control
same,survivor count,"dose: 1.5 mg/kg/injection, schedule: Q01DX009 (ip), vehicle: saline",6 of 6
same,survivor count,"dose: 2.25 mg/kg/injection, schedule: Q01DX009 (ip), vehicle: saline",6 of 6
same,survivor count,"dose: 3.0 mg/kg/injection, schedule: Q01DX009 (ip), vehicle: saline",6 of 6
same,T/C,"dose: 3.0 mg/kg/injection, schedule: Q04DX003 (ip), vehicle: saline",145 % of control
same,survivor count,"dose: 6.0 mg/kg/injection, schedule: Q01DX009 (ip), vehicle: saline",5 of 6
same,survivor count,"dose: 12.5 mg/kg/injection, schedule: Q04DX003 (ip), vehicle: saline",6 of 6
same,survivor count,"dose: 25.0 mg/kg/injection, schedule: Q04DX003 (ip), vehicle: saline",0 of 6
same,survivor count,"dose: 50.0 mg/kg/injection, schedule: Q04DX003 (ip), vehicle: saline",0 of 6
same,survivor count,"dose: 100.0 mg/kg/injection, schedule: Q04DX003 (ip), vehicle: saline",0 of 6
same,survivor count,"dose: 200.0 mg/kg/injection, schedule: Q04DX003 (ip), vehicle: saline",0 of 6
same,survivor count,[1],0 of 6
same,T/C,"dose: 90.0 micrograms/kg/injection, schedule: Q04DX003 (ip), vehicle: saline",133 % of control
S=C1N=C2c3ccccc3C2C(=S)S1 (stereo not drawn),survivor count,"dose: 25.0 mg/kg/injection, schedule: Q01DX009 (ip), vehicle: saline with Tween-80",6 of 6
CN(C)[C@@H]1C(=O)C(C(=O)NCNC(CO)(CO)CO)=C(O)[C@@]2(O)C(=O)C3=C(O)c4c(O)cccc4[C@@](C)(O)[C@H]3C[C@@H]12,survivor count,[1],5 of 6
CCNC(C)(C)C(Cl)c1cccs1 (stereo not drawn),survivor count,"dose: 12.5 mg/kg/injection, schedule: Q01DX009 (ip), vehicle: saline",6 of 6
same,survivor count,"dose: 37.5 mg/kg/injection, schedule: Q01DX009 (ip), vehicle: saline",5 of 6
same,survivor count,"dose: 75.0 mg/kg/injection, schedule: Q01DX009 (ip), vehicle: saline",4 of 6
same,survivor count,"dose: 150.0 mg/kg/injection, schedule: Q01DX009 (ip), vehicle: saline",4 of 6
same,survivor count,[2],3 of 6
same,survivor count,"dose: 300.0 mg/kg/injection, schedule: Q01DX009 (ip), vehicle: saline",0 of 6
same,survivor count,[1],1 of 6
O=C(O)c1ccc(N2C(=O)C=CC2=O)cc1 (tested in a mixture with another compound),survivor count,"dose: 6.25 mg/kg/injection, schedule: Q01DX009 (ip), vehicle: Klucel (hydroxypropylcellulose) (HPC)",6 of 6
same,survivor count,"dose: 12.5 mg/kg/injection, schedule: Q01DX009 (ip), vehicle: Klucel (hydroxypropylcellulose) (HPC)",0 of 6
CCC[CH2][Sn]([CH2]CCC)([CH2]CCC)[S]C(=S)NCCNC(=S)[S][Sn]([CH2]CCC)([CH2]CCC)[CH2]CCC,survivor count,"dose: 6.25 mg/kg/injection, schedule: Q01DX010 (ip), vehicle: saline",0 of 6
CC1(C)O[C@@H]2C[C@H]3[C@@H]4CCC5=CC(=O)CC[C@]5(C)[C@@]4(F)[C@@H](O)C[C@]3(C)[C@]2(C(=O)CO)O1,survivor count,"dose: 100.0 mg/kg/injection, schedule: Q01DX009 (ip), vehicle: saline with Tween-80",6 of 6
same,survivor count,[3],6 of 6
same,survivor count,"dose: 400.0 mg/kg/injection, schedule: Q01DX009 (ip), vehicle: saline with Tween-80",5 of 6
COc1ccc(C(C#N)N2CCCCC2)cc1 (stereo not drawn),survivor count,"dose: 100.0 mg/kg/injection, schedule: Q01DX009 (ip), vehicle: Klucel (hydroxypropylcellulose) (HPC)",6 of 6
same,survivor count,"dose: 200.0 mg/kg/injection, schedule: Q01DX009 (ip), vehicle: Klucel (hydroxypropylcellulose) (HPC)",4 of 6
same,survivor count,"dose: 200.0 mg/kg/injection, schedule: Q04DX003 (ip), vehicle: Klucel (hydroxypropylcellulose) (HPC)",6 of 6
same,survivor count,"dose: 400.0 mg/kg/injection, schedule: Q04DX003 (ip), vehicle: Klucel (hydroxypropylcellulose) (HPC)",3 of 6
CCCN1CCN(c2ccc([N+](=O)[O-])c3no[n+]([O-])c23)CC1,T/C,"dose: 5.0 mg/kg/injection, schedule: Q01DX009 (ip), vehicle: saline with Tween-80",132 % of control
Oc1ccccc1/C=N\c1nccs1,survivor count,[4],2 of 6
CC[C@@]1(O)C(=O)OCc2c1cc1n(c2=O)Cc2cc3c(OC)cccc3nc2-1,T/C,"dose: 2.0 mg/kg/injection, schedule: Q01DX009 (ip), vehicle: carboxymethylcellulose (CMC)",134 % of control
same,survivor count,"dose: 4.0 mg/kg/injection, schedule: Q01DX009 (ip), vehicle: carboxymethylcellulose (CMC)",6 of 6
Cc1cc2cc3c(=O)[nH]c(=O)nc-3n(CC(O)C(O)C(O)COP(=O)(O)O)c2cc1C (stereo not drawn),survivor count,"dose: 166.0 mg/kg/injection, schedule: Q01DX009 (ip), vehicle: saline",6 of 6
same,survivor count,[2],5 of 6
same,survivor count,[5],4 of 6
CNCCOC(=O)/C=C1\CC[C@H]2[C@@H]([C@@H](O)C(=O)[C@@H]3[C@]2(C)CC[C@H](O)[C@]3(C)C(=O)OC)[C@H]1C,survivor count,"dose: 100.0 mg/kg/injection, schedule: Q01DX009 (ip), vehicle: saline",0 of 3
same,survivor count,[2],0 of 3
same,survivor count,[5],0 of 3
"CCCCC/C=C/C/C=C\CCCCCCCC(=O)NC1CC(O)C(O)NC(=O)C2C(O)C(C)CN2C(=O)C(C(C)O)NC(=O)C(C(O)C(O)c2ccc(O)cc2)NC(=O)C2CC(O)CN2C(=O)C(C(C)O)NC1=O (stereo not drawn) (X4-[ξOrn(4,5-diOH)]T[Hyp][ξhTyr(βξ-OH,γξ-OH)]T[ξPro(3ξ-OH,4ξ-Me)]; lactam 1-C; configuration not given here)",survivor count,"dose: 8.0 mg/kg/injection, schedule: Q01DX009 (ip), vehicle: lactate",3 of 6
C[C@]12CC[C@@H]3c4ccc(OC(=O)Cc5ccc(N(CCCl)CCCl)cc5)cc4CC[C@H]3[C@@H]1CC[C@@H]2OC(=O)Cc1ccc(N(CCCl)CCCl)cc1,survivor count,[3],6 of 6
same,T/C,"dose: 256.0 mg/kg/injection, schedule: Q01DX009 (ip), vehicle: Klucel (hydroxypropylcellulose) (HPC)",132 % of control
same,T/C,"dose: 512.0 mg/kg/injection, schedule: Q01DX009 (ip), vehicle: Klucel (hydroxypropylcellulose) (HPC)",142 % of control
same,T/C,"dose: 600.0 mg/kg/injection, schedule: Q04DX003 (ip), vehicle: saline with Tween-80",133 % of control
CCC1(c2ccccc2)NC(=O)N(C)C1=O (stereo not drawn),survivor count,[4],0 of 6
